We go through 1 substance from article doi:10.1101/469700.

The chains behind the UniProt entries cited, without tags or fusion partners. Residues count along the entry.
UniProt Q3URE9, residues 28-606: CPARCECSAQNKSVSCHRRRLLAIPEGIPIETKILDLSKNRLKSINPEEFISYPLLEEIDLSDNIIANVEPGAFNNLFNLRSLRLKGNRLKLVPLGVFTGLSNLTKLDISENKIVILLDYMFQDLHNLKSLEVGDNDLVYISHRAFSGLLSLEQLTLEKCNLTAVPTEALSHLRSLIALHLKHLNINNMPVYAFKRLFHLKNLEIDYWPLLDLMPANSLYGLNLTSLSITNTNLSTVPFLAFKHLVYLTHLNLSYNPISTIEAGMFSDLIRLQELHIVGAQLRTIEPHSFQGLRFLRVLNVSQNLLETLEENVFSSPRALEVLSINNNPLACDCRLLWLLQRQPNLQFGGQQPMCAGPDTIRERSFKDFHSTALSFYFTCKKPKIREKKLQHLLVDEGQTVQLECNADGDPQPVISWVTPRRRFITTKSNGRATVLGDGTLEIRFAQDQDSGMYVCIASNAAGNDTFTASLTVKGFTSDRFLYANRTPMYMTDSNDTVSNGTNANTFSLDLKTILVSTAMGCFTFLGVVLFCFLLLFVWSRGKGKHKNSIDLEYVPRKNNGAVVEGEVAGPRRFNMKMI

These are yes or no findings as the source states them, for the method shown. In cells and extracts the contact can be indirect. Some results given as binding are weak or reduced against the parent protein; the word gives no strength. Sequences can lack the tags named with a protein.

This experiment has as its target T1, murine TFF3-Fc (mouse) (UniProt Q62395).
T1 sequence: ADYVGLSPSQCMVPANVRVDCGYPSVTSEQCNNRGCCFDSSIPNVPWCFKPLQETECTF
Nature of the experiment: co-IP.

On to “Lingo2:Flag expressed in CHO cells (from UniProt Q3URE9 28-606) (receptor)”, for which the binding result was “binds”.
